This passage reports IC50 results from patent US11858935B1, “Pyrrolo[2,3-c][1,7]naphthyridine-2-carboxylic acid compounds as CK2 inhibitors” (KING FAISAL UNIVERSITY, priority 2023, dated 2024).

The structures appear in SMILES notation.

Format in all cases: cell-based
One test relates to MDA-MB-231 (breast). The experiment in a line: In vitro cytotoxic activity (MTT) assay, MDA-MB-231. Conditions: Homo sapiens; MDA-MB-231 (breast) cells, exposed 96 hours; read-out: IC50, concentration eliciting 50% inhibition of cell proliferation. As for the experimental part:
(§1) Compounds 1-16 were screened for their in vitro cytotoxic activity utilizing a 3-(4,5-dimethyl-thiazol-2-yl)-2,5-diphenyltetrazolium bromide (MTT) assay against selected cancer human cell lines consisting of PC3 (prostate), HCT116 (colon), A375 (melanoma), H1299 (lung), MIAPaCa-2 (pancreas), HL60 (leukemia), MCF7 (breast), MDA-MB-231 (breast) (T. Mosmann, J. Immunol. Meth., 1983, 65, 55-63). The cells were cultured at 37° C. in RMPI1640 medium supplemented with 10% fetal bovine serum, 50 IU/mL penicillin, and 50 μg/mL streptomycin in a 5% CO2 incubator. All cells were sub-cultured 3 times/week by trypsinisation. Viable cells were seeded and allowed to adhere for 12 h before a test drug was added in 96-well plates at an initial density of 1.0×10^5 cells/mL. Tumor cell lines were separately exposed to various concentrations of the tested compounds followed by incubation at a temperature of 37° C. during 96 h inside a medium of fresh RMPI 1640. Cells were subsequently incubated at 37° C. using MTT at 0.5 mg/mL during 4 h. After removal of supernatant, formazan crystals were dissolved in isopropanol and the optical density was measured at 570 nm. CX-4945 was used as a positive control.

The next test relates to MCF7 (breast). The experiment in a line: In vitro cytotoxic activity (MTT) assay, MCF7. The conditions noted are these: Homo sapiens; MCF7 (breast) cells, exposed 96 hours; read-out: IC50, concentration eliciting 50% inhibition of cell proliferation. As for the experimental part: as §1
A further test concerns H1299 (lung). The experiment in a line: In vitro cytotoxic activity (MTT) assay, H1299. The conditions noted are these: Homo sapiens, NCI-H1299; H1299 (lung) cells, exposed 96 hours; read-out: IC50, concentration eliciting 50% inhibition of cell proliferation. As for the experimental part: as §1
The test system of a further test is PC3 (prostate). The experiment in a line: In vitro cytotoxic activity (MTT) assay, PC3. The conditions noted are these: Homo sapiens, Prostate cell; PC3 (prostate) cells, exposed 96 hours; read-out: IC50, concentration eliciting 50% inhibition of cell proliferation. As for the experimental part: as §1
A further test concerns HCT116 (colon). The experiment in a line: In vitro cytotoxic activity (MTT) assay, HCT116. The conditions noted are these: Homo sapiens, HCT-116; HCT116 (colon) cells, exposed 96 hours; read-out: IC50, concentration eliciting 50% inhibition of cell proliferation. As for the experimental part: as §1
A further test deals with HL60 (leukemia). The experiment in a line: In vitro cytotoxic activity (MTT) assay, HL60. The conditions noted are these: Homo sapiens, HL-60; HL60 (leukemia) cells, exposed 96 hours; read-out: IC50, concentration eliciting 50% inhibition of cell proliferation. As for the experimental part:
as §1

The next test concerns MIAPaCa-2 (pancreas). The experiment in a line: In vitro cytotoxic activity (MTT) assay, MIAPaCa-2. The conditions noted are these: Homo sapiens, MIA PaCa-2; MIAPaCa-2 (pancreas) cells, exposed 96 hours; read-out: IC50, concentration eliciting 50% inhibition of cell proliferation. As for the experimental part:
as §1

A further test has as its system A375 (melanoma). The experiment in a line: In vitro cytotoxic activity (MTT) assay, A375. The conditions noted are these: Homo sapiens, A-375; A375 (melanoma) cells, exposed 96 hours; read-out: IC50, concentration eliciting 50% inhibition of cell proliferation. As for the experimental part:
as §1

As for `O=C(O)c1ccc2c(c1)nc(Nc1cccc(Cl)c1)c1ccncc12` [CX-4945, reference compound], the IC50 was 6200 nM in the test with MDA-MB-231 (breast); 9100 nM in the test on MCF7 (breast); 2300 nM in the test with H1299 (lung); 2000 nM in the test on PC3 (prostate); 2300 nM in the test on HCT116 (colon); 3700 nM with HL60 (leukemia). Moreover, the values for the IC50 in the test with MIAPaCa-2 (pancreas) and with A375 (melanoma) were 1000 nM and 4100 nM, respectively.
